Measured values published in patent publication US8658698B2, “Insecticidal compounds” (Syngenta Crop Protection, LLC, priority 2008, dated 2014).
Some of these results come from one statement about several compounds together.

Experiments:
Assay type in all cases: in vivo
[1] = system: Heliothis virescens (Tobacco Budworm); assay: Heliothis virescens egg test on artificial diet; settings: 200 ppm (concentration in well 18 ppm), eggs 0-24 h old on artificial diet, 4 days; egg mortality, larval mortality, growth regulation
Protocol: (§1) This Example illustrates the pesticidal/insecticidal properties of compounds of formula (I). The tests were performed as follows:
(§2) Cotton leaf discs were placed on agar in a 24-well microtiter plate and sprayed with test solutions at an application rate of 200 ppm. After drying, the leaf discs were infested with 5 L1 larvae. The samples were checked for mortality, feeding behavior, and growth regulation 3 days after treatment (DAT). The following compounds gave at least 80% control of Spodoptera littoralis: A2, A6, A8, A9, A10, A11, A13, A15, A19, A20, A22, A25, A27, A29, A31, A33, A35, A41, A50, A55, A60, A65, A73, A88, A92, and A94. Heliothis virescens (Tobacco Budworm): Eggs (0-24 h old) were placed in 24-well microtiter plate on artificial diet and treated with test solutions at an application rate of 200 ppm (concentration in well 18 ppm) by pipetting. After an incubation period of 4 days, samples were checked for egg mortality, larval mortality and growth regulation. The following compounds gave at least 80% control of Heliothis virescens: A2, A3, A4, A5, A6, A7, A9, A10, A11, A13, A15, A19, A20, A22, A25, A26, A27, A28, A29, A31, A32, A33, A35, A38, A40, A41, A43, A46, A55, A59, A60, A65, A69, A70, A71, A73, A74, A75, A77, A79, A80, A82, A86, A88, A89, A90, A92, A94, A96, A98, and A100. Plutella xylostella (Diamond Back Moth): A 24-well microtiter plate (MTP) with artificial diet was treated with test solutions at an application rate of 200 ppm (concentration in well 18 ppm) by pipetting. After drying, the MTP's were infested with L2 larvae (7-12 per well). After an incubation period of 6 days, samples were checked for larval mortality and growth regulation. The following compounds gave at least 80% control of Plutella xylostella: A3, A4, A5, A6, A7, A8, A10, A15, A16, A18, A19, A20, A22, A25, A26, A27, A28, A29, A31, A32, A33, A35, A38, A40, A55, A69, A71, A73, A74, A75, A76, A77, A78, A80, A82, A86, A87, A88, A89, A92, A94, A96, A97, A98, and A99. Diabrotica balteata (Corn Root Worm): A 24-well microtiter plate (MTP) with artificial diet was treated with test solutions at an application rate of 200 ppm (concentration in well 18 ppm) by pipetting. After drying, the MTP's were infested with larvae (L2) (6-10 per well). After an incubation period of 5 days, samples were checked for larval mortality, and growth regulation. The following compounds gave at least 80% control of Diabrotica balteata: A5, A6, A7, A14, A15, A18, A24, A35, A53, A55, A70, A71, A75, A79, A84, A85, A88, A92, A93, A95, A96, A97, A98, A99, A100, A101, A102, A103, and A104. Myzus persicae (Green Peach Aphid): Each well of a 24-well microtiter plate is filled with 0.6 ml 30% sucrose solution, containing 12.5 ppm of the test compounds. The wells are covered with streched parafilm and infested with a mixed population of Myzus persicae. After an incubation period of 6 days, samples are checked for mortality (feeding activity). The following compounds gave at least 80% control of Myzus persicae: A4, A6, A10, A11, A15, A19, A20, A24, A27, A29, A33, A34, A36, A37, A39, A40, A41, A42, A43, A44, A45, A46, A47, A48, A49, A55, A60, and A82. Tetranychus urticae (Two-Spotted Spider Mite): Bean leaf discs on agar in 24-well microtiter plates were sprayed with test solutions at an application rate of 200 ppm. After drying, the leaf discs are infested with mite populations of mixed ages. 8 days later, discs are checked for egg mortality, larval mortality, and adult mortality. The following compounds gave at least 80% control of Tetranychus urticae: A6, A11, A15, A19, A20, A22, A26, A35, A58, and A64.

[2] = system: Plutella xylostella (Diamond Back Moth); assay: Plutella xylostella larvae test on artificial diet; settings: 200 ppm (concentration in well 18 ppm), L2 larvae, 6 days, larval mortality, growth regulation
Protocol: as §1, §2

[3] = system: Diabrotica balteata (Corn Root Worm); assay: Diabrotica balteata larvae test on artificial diet; settings: 200 ppm (concentration in well 18 ppm), L2 larvae, 5 days, larval mortality, growth regulation
Protocol: as §1, §2

Row | Compound | control of Heliothis virescens [1] | control of Plutella xylostella [2] | control of Diabrotica balteata [3]
1 | CCCCNC(=O)c1ccc(C(=O)Nc2c(C)cc(C(F)(C(F)(F)F)C(F)(F)C(F)(F)F)cc2CC)cc1C (stereo not drawn) [A3, N-1-Butyl-N-4-[2-ethyl-4-(1,2,2,3,3,3-hexafluoro-1-trifluoromethyl-propyl)-6-methyl-phenyl]-2-methyl-terephthalamide] | at least 80% | at least 80% | 
2 | CCc1cc(C(F)(C(F)(F)F)C(F)(F)C(F)(F)F)cc(C)c1NC(=O)c1ccc(C(=O)NCc2ccc(Cl)cc2)c(C)c1 (stereo not drawn) [A5] | at least 80% | at least 80% | at least 80%
3 | CCc1cc(C(F)(C(F)(F)F)C(F)(F)C(F)(F)F)cc(C)c1NC(=O)c1ccc(C(=O)NCc2cccnc2)c(C)c1 (stereo not drawn) [A7] | at least 80% | at least 80% | at least 80%
4 | CCc1cc(C(F)(C(F)(F)F)C(F)(F)C(F)(F)F)cc(C)c1NC(=O)c1ccc(C(=O)NCc2ncc(C(F)(F)F)cc2Cl)c(C)c1 (stereo not drawn) [A14] |  |  | at least 80%
5 | CCc1cc(C(F)(C(F)(F)F)C(F)(F)C(F)(F)F)cc(C)c1NC(=O)c1ccc(C(=O)NC(CC)CO)c(C)c1 (stereo not drawn) [A16] |  | at least 80% | 
6 | CCc1cc(C(F)(C(F)(F)F)C(F)(F)C(F)(F)F)cc(C)c1NC(=O)c1ccc(C(=O)NCc2ccccc2Br)c(C)c1 (stereo not drawn) [A18] |  | at least 80% | at least 80%
7 | CCc1cc(C(F)(C(F)(F)F)C(F)(F)C(F)(F)F)cc(C)c1NC(=O)c1ccc(C(=O)NCCNC(C)=O)c(C)c1 (stereo not drawn) [A28] | at least 80% | at least 80% | 
8 | CCc1cc(C(F)(C(F)(F)F)C(F)(F)C(F)(F)F)cc(C)c1NC(=O)c1ccc(C(=O)NCc2ccccc2C(F)(F)F)c(C)c1 (stereo not drawn) [A32] | at least 80% | at least 80% | 
9 | CCc1cc(C(F)(C(F)(F)F)C(F)(F)C(F)(F)F)cc(C)c1NC(=O)c1ccc(C(=O)NCc2ccc3c(c2)CCO3)c(C)c1 (stereo not drawn) [A53] |  |  | at least 80%
10 | CCc1cc(C(F)(C(F)(F)F)C(F)(F)C(F)(F)F)cc(C)c1NC(=O)c1ccc(C(=O)NCc2ccccc2F)c(C)c1 (stereo not drawn) [A69] | at least 80% | at least 80% | 
11 | CCc1cc(C(F)(C(F)(F)F)C(F)(F)C(F)(F)F)cc(C)c1NC(=O)c1ccc(C(=O)NC(C)c2ccccc2)c(C)c1 (stereo not drawn) [A70] | at least 80% |  | at least 80%
12 | CCc1cc(C(F)(C(F)(F)F)C(F)(F)C(F)(F)F)cc(C)c1NC(=O)c1ccc(C(=O)NCc2cccs2)c(C)c1 (stereo not drawn) [A74] | at least 80% | at least 80% | 
13 | CCc1cc(C(F)(C(F)(F)F)C(F)(F)C(F)(F)F)cc(C)c1NC(=O)c1ccc(C(=O)NCc2ccc(F)cc2)c(C)c1 (stereo not drawn) [A76] |  | at least 80% | 
14 | CCc1cc(C(F)(C(F)(F)F)C(F)(F)C(F)(F)F)cc(C)c1NC(=O)c1ccc(C(=O)NCc2ccc(OC)cc2OC)c(C)c1 (stereo not drawn) [A77] | at least 80% | at least 80% | 
15 | CCc1cc(C(F)(C(F)(F)F)C(F)(F)C(F)(F)F)cc(C)c1NC(=O)c1ccc(C(=O)NCc2ccccc2OC)c(C)c1 (stereo not drawn) [A78] |  | at least 80% | 
16 | CCc1cc(C(F)(C(F)(F)F)C(F)(F)C(F)(F)F)cc(C)c1NC(=O)c1ccc(C(=O)NCc2ccc(C(F)(F)F)nc2)c(C)c1 (stereo not drawn) [A79] | at least 80% |  | at least 80%

Row | Compound | control of Heliothis virescens [1] | control of Plutella xylostella [2] | control of Diabrotica balteata [3]
17 | CCc1cc(C(F)(C(F)(F)F)C(F)(F)C(F)(F)F)cc(C)c1NC(=O)c1ccc(C(=O)NCc2cccc(C(F)(F)F)c2)c(C)c1 (stereo not drawn) [A80] | at least 80% | at least 80% | 
18 | CCc1cc(C(F)(C(F)(F)F)C(F)(F)C(F)(F)F)cc(C)c1NC(=O)c1ccc(C(=O)NCc2ccc(Cl)cc2Cl)c(C)c1 (stereo not drawn) [A84] |  |  | at least 80%
19 | CCc1cc(C(F)(C(F)(F)F)C(F)(F)C(F)(F)F)cc(C)c1NC(=O)c1ccc(C(=O)NCc2cccc(C)c2)c(C)c1 (stereo not drawn) [A85] |  |  | at least 80%
20 | CCOc1ccccc1CNC(=O)c1ccc(C(=O)Nc2c(C)cc(C(F)(C(F)(F)F)C(F)(F)C(F)(F)F)cc2CC)cc1C (stereo not drawn) [A86] | at least 80% | at least 80% | 
21 | CCc1cc(C(F)(C(F)(F)F)C(F)(F)C(F)(F)F)cc(C)c1NC(=O)c1ccc(C(=O)NCc2c(C)cccc2Cl)c(C)c1 (stereo not drawn) [A87] |  | at least 80% | 
22 | CCc1cc(C(F)(C(F)(F)F)C(F)(F)C(F)(F)F)cc(C)c1NC(=O)c1ccc(C(=O)NCc2ccc(I)cc2)c(C)c1 (stereo not drawn) [A89] | at least 80% | at least 80% | 
23 | CCc1cc(C(F)(C(F)(F)F)C(F)(F)C(F)(F)F)cc(C)c1NC(=O)c1ccc(C(=O)NCc2ccc(-c3ccccc3)cc2)c(C)c1 (stereo not drawn) [A90] | at least 80% |  | 
24 | CCc1cc(C(F)(C(F)(F)F)C(F)(F)C(F)(F)F)cc(C)c1NC(=O)c1ccc(C(=O)NCc2ccc(Oc3ccc(Cl)cc3)cc2)c(C)c1 (stereo not drawn) [A93] |  |  | at least 80%
25 | CCc1cc(C(F)(C(F)(F)F)C(F)(F)C(F)(F)F)cc(C)c1NC(=O)c1ccc(C(=O)NCc2cc(C(F)(F)F)cc(C(F)(F)F)c2)c(C)c1 (stereo not drawn) [A95] |  |  | at least 80%
26 | CCc1cc(C(F)(C(F)(F)F)C(F)(F)C(F)(F)F)cc(C)c1NC(=O)c1ccc(C(=O)NCc2cccc(F)c2)c(C)c1 (stereo not drawn) [A97] |  | at least 80% | at least 80%
27 | CCc1cc(C(F)(C(F)(F)F)C(F)(F)C(F)(F)F)cc(C)c1NC(=O)c1ccc(C(=O)NCc2ccccc2Cl)c(C)c1 (stereo not drawn) [A99] |  | at least 80% | at least 80%
28 | CCc1cc(C(F)(C(F)(F)F)C(F)(F)C(F)(F)F)cc(C)c1NC(=O)c1ccc(C(=O)NCc2ccc(Cl)c(Cl)c2)c(C)c1 (stereo not drawn) [A100] | at least 80% |  | at least 80%
29 | CCc1cc(C(F)(C(F)(F)F)C(F)(F)C(F)(F)F)cc(C)c1NC(=O)c1ccc(C(=O)NCc2ccc(C)cc2)c(C)c1 (stereo not drawn) [A101] |  |  | at least 80%
30 | CCc1cc(C(F)(C(F)(F)F)C(F)(F)C(F)(F)F)cc(C)c1NC(=O)c1ccc(C(=O)NCc2ccc(F)cc2F)c(C)c1 (stereo not drawn) [A102] |  |  | at least 80%
31 | CCc1cc(C(F)(C(F)(F)F)C(F)(F)C(F)(F)F)cc(C)c1NC(=O)c1ccc(C(=O)NCc2cc(OC)c(OC)c(OC)c2)c(C)c1 (stereo not drawn) [A103] |  |  | at least 80%
32 | CCc1cc(C(F)(C(F)(F)F)C(F)(F)C(F)(F)F)cc(C)c1NC(=O)c1ccc(C(=O)NCc2ccncc2)c(C)c1 (stereo not drawn) [A104] |  |  | at least 80%
